# Literature values as cited in publication PMC12436592 (Nature Communications, 2025).
# System: P2X7R
# Conditions: cited from earlier work
Compound,fold higher affinity for the rP2X7R than the hP2X7R,fold less effective against the rP2X7R than the hP2X7R,fold less potent at the mP2X7R than the hP2X7R
O=C(NCC1(N2CCN(c3ccccc3)CC2)CCOCC1)c1cccnc1Sc1ccccc1 [JNJ47965567],~ 10 fold,–,–
O=C1CSC(=O)N1C(CCc1ccncc1)COc1ccc(-c2cccc([N+](=O)[O-])c2)cc1 (stereo not drawn) [AZ11645373],–,> 500 fold,~ 100 fold
